These are yes or no findings as the source states them, for the method shown. In cells and extracts the contact can be indirect. These calls come from enrichment with a bait or labelling near it, and not all partners need be listed.
What follows are substances tested against T1, human platelet ERO1α (human) (UniProt Q96HE7) (assay: co-immunoprecipitation of ERO1α from lysates of resting and thrombin-activated human platelets, mass spectrometry; volcano plot thrombin versus no thrombin).
T1 sequence (looked up): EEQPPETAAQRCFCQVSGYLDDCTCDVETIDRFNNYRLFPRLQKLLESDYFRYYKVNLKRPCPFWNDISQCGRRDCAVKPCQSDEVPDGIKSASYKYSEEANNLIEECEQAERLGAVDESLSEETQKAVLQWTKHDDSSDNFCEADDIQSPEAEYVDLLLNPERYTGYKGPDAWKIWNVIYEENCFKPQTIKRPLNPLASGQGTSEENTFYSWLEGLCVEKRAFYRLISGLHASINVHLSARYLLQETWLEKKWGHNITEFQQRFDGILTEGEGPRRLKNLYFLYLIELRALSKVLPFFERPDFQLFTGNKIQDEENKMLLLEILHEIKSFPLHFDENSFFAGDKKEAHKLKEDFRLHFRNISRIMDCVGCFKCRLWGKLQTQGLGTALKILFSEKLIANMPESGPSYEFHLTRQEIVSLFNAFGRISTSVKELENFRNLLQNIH

Amino acid sequences for entries named in this document (tags omitted). Residues count along the entry.
UniProt O14545, residues 2-582: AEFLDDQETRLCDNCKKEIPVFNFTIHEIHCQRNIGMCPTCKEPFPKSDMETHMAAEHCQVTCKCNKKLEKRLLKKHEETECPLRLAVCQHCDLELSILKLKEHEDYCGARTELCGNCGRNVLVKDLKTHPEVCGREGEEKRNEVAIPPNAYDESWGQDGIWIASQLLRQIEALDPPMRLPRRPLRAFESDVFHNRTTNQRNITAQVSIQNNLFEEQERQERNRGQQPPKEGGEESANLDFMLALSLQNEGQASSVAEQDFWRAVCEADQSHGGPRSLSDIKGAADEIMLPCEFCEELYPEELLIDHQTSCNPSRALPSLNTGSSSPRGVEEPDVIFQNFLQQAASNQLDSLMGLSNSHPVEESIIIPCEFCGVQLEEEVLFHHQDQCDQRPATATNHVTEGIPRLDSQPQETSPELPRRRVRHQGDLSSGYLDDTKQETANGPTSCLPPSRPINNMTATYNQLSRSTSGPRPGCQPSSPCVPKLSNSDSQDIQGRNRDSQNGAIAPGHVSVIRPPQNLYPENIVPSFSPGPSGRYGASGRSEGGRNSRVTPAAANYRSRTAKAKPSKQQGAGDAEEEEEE
UniProt P07237, residues 18-508: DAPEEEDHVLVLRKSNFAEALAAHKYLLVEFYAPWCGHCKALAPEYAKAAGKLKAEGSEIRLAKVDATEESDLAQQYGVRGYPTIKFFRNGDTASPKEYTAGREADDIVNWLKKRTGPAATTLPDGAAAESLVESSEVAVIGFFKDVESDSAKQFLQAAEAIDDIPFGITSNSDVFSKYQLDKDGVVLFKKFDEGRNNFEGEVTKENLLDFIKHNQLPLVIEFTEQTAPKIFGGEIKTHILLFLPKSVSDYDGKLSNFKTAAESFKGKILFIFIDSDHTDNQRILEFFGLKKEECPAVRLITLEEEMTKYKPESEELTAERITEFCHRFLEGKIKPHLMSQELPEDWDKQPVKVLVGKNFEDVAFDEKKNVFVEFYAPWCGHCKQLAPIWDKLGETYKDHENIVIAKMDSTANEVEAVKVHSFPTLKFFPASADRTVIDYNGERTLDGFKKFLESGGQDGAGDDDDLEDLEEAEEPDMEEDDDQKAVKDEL
UniProt Q13576: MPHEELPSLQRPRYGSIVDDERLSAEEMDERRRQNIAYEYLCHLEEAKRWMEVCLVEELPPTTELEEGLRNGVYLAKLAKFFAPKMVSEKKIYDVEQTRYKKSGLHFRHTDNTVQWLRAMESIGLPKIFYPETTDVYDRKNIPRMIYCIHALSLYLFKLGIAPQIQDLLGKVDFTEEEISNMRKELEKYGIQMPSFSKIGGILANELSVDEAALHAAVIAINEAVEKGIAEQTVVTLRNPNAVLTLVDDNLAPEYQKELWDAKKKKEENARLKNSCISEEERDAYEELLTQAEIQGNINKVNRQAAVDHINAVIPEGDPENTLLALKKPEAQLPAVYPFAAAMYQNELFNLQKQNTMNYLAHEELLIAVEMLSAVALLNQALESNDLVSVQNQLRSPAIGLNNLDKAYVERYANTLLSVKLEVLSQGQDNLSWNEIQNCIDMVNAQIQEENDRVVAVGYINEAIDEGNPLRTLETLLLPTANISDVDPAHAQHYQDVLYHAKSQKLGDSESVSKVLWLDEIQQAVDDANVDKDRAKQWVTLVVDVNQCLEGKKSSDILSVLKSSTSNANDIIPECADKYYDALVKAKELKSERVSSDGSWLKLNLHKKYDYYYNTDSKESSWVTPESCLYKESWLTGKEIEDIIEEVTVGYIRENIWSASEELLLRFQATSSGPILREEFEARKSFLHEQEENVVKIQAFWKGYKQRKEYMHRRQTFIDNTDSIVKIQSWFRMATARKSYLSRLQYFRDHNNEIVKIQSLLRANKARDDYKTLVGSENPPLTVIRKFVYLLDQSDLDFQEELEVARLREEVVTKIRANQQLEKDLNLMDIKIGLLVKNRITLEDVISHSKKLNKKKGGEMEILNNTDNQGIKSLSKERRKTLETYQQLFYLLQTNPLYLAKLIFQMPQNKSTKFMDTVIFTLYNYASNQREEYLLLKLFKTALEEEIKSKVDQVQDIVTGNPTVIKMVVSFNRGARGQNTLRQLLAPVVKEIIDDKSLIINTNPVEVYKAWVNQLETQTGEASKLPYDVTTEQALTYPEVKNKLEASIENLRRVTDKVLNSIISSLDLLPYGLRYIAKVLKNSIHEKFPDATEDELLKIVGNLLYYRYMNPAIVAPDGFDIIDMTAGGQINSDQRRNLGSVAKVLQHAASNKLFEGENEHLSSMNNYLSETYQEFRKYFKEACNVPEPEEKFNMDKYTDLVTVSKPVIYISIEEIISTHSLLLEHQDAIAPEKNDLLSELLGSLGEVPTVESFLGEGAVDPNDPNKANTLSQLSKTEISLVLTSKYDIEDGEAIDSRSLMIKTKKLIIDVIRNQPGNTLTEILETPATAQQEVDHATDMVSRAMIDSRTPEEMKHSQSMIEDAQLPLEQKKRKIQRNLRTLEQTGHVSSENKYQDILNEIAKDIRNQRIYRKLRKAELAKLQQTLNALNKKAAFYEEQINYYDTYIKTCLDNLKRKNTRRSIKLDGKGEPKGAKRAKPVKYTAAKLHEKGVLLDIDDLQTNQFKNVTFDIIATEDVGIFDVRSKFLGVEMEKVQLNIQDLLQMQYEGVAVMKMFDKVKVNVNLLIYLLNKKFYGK
UniProt Q14677: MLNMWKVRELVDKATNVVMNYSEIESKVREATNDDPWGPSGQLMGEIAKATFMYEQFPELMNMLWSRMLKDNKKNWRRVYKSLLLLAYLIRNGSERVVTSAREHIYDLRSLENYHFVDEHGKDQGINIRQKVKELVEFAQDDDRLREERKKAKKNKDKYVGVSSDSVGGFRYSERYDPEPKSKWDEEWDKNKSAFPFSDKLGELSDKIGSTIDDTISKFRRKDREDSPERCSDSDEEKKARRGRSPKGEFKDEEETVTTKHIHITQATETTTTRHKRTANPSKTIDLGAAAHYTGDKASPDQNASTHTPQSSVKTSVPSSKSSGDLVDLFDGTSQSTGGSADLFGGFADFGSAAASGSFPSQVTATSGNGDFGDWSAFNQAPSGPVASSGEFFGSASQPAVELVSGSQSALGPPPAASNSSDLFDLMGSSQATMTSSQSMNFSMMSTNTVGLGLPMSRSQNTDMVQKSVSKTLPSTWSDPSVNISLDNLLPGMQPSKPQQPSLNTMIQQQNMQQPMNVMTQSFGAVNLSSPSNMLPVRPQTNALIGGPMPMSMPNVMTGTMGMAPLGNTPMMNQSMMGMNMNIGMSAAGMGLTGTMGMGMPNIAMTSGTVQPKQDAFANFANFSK
UniProt P07359, residues 17-652: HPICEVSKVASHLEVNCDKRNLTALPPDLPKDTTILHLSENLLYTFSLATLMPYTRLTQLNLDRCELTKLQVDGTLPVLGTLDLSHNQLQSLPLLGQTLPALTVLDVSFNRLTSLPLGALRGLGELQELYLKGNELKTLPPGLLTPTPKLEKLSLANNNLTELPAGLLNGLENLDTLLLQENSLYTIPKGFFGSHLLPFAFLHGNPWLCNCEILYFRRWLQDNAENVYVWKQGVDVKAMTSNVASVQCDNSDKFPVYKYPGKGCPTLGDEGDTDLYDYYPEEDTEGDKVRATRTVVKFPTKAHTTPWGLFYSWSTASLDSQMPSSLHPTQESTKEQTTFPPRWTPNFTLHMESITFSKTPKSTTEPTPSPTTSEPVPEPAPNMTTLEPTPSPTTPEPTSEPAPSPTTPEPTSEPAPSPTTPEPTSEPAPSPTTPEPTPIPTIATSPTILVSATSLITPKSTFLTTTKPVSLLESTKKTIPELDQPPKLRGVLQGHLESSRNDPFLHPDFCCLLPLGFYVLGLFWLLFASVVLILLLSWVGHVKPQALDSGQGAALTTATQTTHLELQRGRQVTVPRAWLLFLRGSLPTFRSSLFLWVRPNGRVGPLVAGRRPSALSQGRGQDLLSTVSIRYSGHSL
UniProt Q9HCN6, residues 21-339: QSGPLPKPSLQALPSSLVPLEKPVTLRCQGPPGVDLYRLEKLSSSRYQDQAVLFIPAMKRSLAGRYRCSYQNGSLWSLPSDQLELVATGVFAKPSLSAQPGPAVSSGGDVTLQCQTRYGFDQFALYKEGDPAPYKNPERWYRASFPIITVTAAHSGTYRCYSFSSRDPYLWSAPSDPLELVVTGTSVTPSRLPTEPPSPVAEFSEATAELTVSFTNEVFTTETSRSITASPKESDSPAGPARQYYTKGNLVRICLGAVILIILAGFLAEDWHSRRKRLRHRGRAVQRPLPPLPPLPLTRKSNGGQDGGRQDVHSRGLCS
UniProt Q9NYU2, residues 43-1555: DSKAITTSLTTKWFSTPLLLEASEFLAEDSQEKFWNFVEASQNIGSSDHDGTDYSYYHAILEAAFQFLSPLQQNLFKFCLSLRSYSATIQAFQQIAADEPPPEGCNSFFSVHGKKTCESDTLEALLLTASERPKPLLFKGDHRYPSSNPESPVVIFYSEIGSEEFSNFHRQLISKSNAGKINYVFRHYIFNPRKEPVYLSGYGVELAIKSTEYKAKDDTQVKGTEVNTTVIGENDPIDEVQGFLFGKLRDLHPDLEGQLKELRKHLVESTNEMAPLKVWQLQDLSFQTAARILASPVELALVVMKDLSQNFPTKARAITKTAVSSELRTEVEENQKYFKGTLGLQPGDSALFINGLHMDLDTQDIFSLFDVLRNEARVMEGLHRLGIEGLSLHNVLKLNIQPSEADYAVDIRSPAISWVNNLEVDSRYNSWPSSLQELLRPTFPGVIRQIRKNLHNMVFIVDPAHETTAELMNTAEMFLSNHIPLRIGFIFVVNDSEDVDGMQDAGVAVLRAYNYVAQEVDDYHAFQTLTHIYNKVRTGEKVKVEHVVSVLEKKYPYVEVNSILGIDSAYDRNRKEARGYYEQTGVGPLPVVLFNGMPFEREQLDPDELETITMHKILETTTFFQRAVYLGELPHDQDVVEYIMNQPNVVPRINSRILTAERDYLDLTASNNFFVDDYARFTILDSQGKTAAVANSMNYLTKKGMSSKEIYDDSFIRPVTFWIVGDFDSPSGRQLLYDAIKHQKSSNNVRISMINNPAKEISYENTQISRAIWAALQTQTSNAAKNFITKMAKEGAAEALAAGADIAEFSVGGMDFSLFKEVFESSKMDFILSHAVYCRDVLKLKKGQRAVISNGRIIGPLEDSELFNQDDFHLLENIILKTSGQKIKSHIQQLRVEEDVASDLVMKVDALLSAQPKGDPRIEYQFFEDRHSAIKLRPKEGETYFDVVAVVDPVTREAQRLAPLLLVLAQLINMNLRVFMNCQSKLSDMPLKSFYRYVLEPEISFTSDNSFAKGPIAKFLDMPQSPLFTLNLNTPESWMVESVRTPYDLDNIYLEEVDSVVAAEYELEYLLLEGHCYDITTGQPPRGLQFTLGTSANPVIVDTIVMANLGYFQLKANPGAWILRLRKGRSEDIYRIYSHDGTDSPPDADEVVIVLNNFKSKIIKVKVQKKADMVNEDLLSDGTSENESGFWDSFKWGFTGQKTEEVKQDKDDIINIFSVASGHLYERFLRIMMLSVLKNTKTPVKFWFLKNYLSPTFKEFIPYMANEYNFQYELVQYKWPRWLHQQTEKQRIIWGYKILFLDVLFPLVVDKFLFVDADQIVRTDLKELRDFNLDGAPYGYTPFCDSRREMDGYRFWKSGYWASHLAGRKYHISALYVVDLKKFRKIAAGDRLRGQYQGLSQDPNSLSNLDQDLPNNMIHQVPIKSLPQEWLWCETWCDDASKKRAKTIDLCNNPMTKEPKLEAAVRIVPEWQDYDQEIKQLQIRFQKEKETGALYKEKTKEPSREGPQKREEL
UniProt P05106, residues 27-788: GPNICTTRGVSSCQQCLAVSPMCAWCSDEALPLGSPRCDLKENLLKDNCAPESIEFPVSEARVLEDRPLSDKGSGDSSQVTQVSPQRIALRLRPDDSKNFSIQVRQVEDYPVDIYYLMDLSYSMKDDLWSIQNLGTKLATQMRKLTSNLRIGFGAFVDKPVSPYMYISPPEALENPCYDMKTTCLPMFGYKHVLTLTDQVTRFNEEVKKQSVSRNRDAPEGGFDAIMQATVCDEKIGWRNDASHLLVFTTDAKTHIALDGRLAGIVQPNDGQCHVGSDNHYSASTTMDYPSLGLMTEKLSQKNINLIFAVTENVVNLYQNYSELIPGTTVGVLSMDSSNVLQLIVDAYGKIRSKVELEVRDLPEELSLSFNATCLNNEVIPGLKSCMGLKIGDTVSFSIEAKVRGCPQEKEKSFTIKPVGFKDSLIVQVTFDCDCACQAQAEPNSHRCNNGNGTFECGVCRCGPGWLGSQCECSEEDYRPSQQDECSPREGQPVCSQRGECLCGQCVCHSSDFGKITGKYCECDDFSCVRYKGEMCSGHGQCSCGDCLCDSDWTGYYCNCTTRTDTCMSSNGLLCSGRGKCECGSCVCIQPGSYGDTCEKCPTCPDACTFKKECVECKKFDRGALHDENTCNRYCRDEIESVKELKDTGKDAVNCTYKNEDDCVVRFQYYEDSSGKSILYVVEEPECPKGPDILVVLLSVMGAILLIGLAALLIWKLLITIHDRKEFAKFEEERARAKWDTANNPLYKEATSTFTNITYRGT

binding, binds:
TRAFD1 (from UniProt O14545)
DYNC1H1 (from UniProt Q14204)

Each substance was assayed against human platelet PDI (protein disulfide isomerase) (human) (UniProt P07237) (assay: co-immunoprecipitation with biotinylated polyclonal anti-PDI antibodies from lysates of resting and thrombin-treated human platelets, trypsin digestion, mass spectrometry; volcano plot thrombin versus no thrombin).

binding, binds:
LDHB (from UniProt P07195) (enzyme)
IQGAP2 (from UniProt Q13576)
CLINT1 (from UniProt Q14677)
GP Ibα (glycoprotein Ibα, human platelets) (from UniProt P07359 17-652) (receptor)
GP6 (from UniProt Q9HCN6) (receptor)
uridine diphosphate-glucose GP glucosyltransferase 1 (from UniProt Q9NYU2 43-1555) (enzyme)
β3 integrin (human platelets) (from UniProt P05106 27-788) (receptor)
TPI1 (from UniProt P60174) (enzyme)

Reference: patent US20240366624A1, “METHODS AND COMPOSITIONS FOR TREATING THROMBOTIC DISEASE” (Washington University, priority 2023, published 2024)
